Measured values from PubChem BioAssay (EPA / NIEHS).
“And” between values parts separate entries of the source, which are not always exact repeats. Equal entries are not always repeated. The shares of active, inactive and inconclusive entries below differ from those in the screen. A potency beside an inconclusive call is a rough fit, not a confirmed value. Some structures have more than one record in an assay (separate samples or runs), and their calls can disagree. The source made the active and inactive calls. Rule for the calls: active = hit-call score of the fitted dose curve at least 0.9, where 1 is the maximum; inconclusive = response in the unintended direction; inactive = score below 0.9.

By UniProt entry, the sequences of proteins in these tests, tags left out. Where a name states a change or a piece, a line headed by the entry shows the natural chain unless it says otherwise.
UniProt P37231: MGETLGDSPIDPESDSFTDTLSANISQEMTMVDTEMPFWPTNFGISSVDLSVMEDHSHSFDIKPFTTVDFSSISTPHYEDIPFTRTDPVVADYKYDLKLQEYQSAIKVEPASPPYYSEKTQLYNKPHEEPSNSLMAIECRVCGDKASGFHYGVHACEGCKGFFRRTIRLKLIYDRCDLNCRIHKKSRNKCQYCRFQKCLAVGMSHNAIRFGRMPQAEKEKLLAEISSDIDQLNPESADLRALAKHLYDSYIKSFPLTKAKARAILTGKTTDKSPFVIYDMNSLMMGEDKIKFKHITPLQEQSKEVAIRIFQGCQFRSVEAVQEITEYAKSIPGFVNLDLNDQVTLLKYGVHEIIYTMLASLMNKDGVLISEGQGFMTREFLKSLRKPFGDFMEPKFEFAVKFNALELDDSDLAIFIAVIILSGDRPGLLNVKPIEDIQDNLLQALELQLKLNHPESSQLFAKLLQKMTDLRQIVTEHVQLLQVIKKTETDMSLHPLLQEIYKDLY

Molecular target: Peroxisome proliferator-activated receptor gamma (Homo sapiens) (UniProt P37231)
Assay: OT_PPARg_PPARgSRC1_0480: Odyssey Thera (OT) 8-hour Protein-Complementation Assay for Peroxisome Proliferator-activated Receptor Gamma / SRC-1 Co-activator (AID 2283387);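 note: nuclear to cytoplasmic split Venus YFP fluorescence ratio reporting PPARg SRC-1 interaction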
How it was run: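 Protein-fragment complementation in HEK293T: Venus YFP halves (residues 1-158, 159-239, mutated to IFP1/IFP2) fused to PPARg/SRC-1. 8 h exposure; N/C ratio at 488 nm; DMSO negative control.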

Row | Structure (SMILES) | AC50 | outcome
1 | O=C(Nc1ccc2[nH]ccc2c1)c1cc2cc(F)ccc2n1Cc1cccc(F)c1 | inconclusive: 50 µM | 
2 | CC(=O)[O][Hg][c]1ccccc1 |  | inactive
3 | O=S1(=O)OC(c2cc(Br)c(O)c(Br)c2)(c2cc(Br)c(O)c(Br)c2)c2ccccc21 | active: 46.5 µM | 
4 | CCCCCCCc1ccc(O)cc1 | inconclusive: 83.7 µM | 
5 | C=C(C)C(=O)[O][Sn]([CH2]CCC)([CH2]CCC)[CH2]CCC | inconclusive: 2.26 µM | 
6 | CCCN(CCC)c1c([N+](=O)[O-])cc(S(N)(=O)=O)cc1[N+](=O)[O-] | inconclusive: 53 µM and inconclusive: 80.4 µM | 
7 | Nc1c(Cl)cc([N+](=O)[O-])cc1Cl | inconclusive: 50 µM | 
8 | CCCCCCCCn1sccc1=O | inconclusive: 26.1 µM | 

Test system: not listed separately
Assay: ATG_XTT_Cytotoxicity: Cytotoxicity Assessment in the Attagene TRANS-FACTORIAL HepG2 Assay (AID 2283584);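 for AC50: XTT signal for cell number as viability in transfected HepG2 cells; cells exposed to compound for 24 h before reading; active means loss of viability signal versus DMSO baseline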
How it was run: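 Transfect HepG2 with GAL4-UAS reporter units, dose compound, incubate 24 h, then measure viable cell number by XTT. Fit concentration response against DMSO baseline.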

Row | Structure (SMILES) | AC50 | outcome
10 | O=[N+]([O-])c1ccc(Cl)c([N+](=O)[O-])c1 | active: 20.2 µM | 
11 | CC(=O)[O][Hg][c]1ccccc1 | active: 8.24 µM | 
12 | CCC(C)(C)c1ccc(O)cc1 |  | inactive
13 | CCCCCCCc1ccc(O)cc1 | active: 152 µM and active: 185 µM and active: 129 µM | 
14 | C=C(C)C(=O)[O][Sn]([CH2]CCC)([CH2]CCC)[CH2]CCC | active: 2.32 µM | 
15 | CCCN(CCC)c1c([N+](=O)[O-])cc(S(N)(=O)=O)cc1[N+](=O)[O-] |  | inactive
16 | CC1(C)CN=C(NN=C(/C=C/c2ccc(C(F)(F)F)cc2)/C=C/c2ccc(C(F)(F)F)cc2)NC1 |  | inactive
17 | CCC[CH2][Sn]([CH2]CCC)([CH2]CCC)[O]C(=O)c1ccccc1 | active: 0.906 µM | 
18 | CCCCCCCCCC[N+](C)(C)CCCCCCCCCC | active: 18.5 µM | 

Test system: not listed separately
Assay: TOX21_p53_BLA_p2_viability: Viability Assessment in the Tox21 HCT-116 p53 Agonism Beta-lactamase Assay, Phase 2 (AID 2283591);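 note: compound exposure lasted 16 h at 37 °C; actives lower the ATP signal meaning cytotoxicity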
How it was run: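 HCT-116 p53-bla cells (4000/well) rested 5 h at 37C, then received compounds in DMSO (217-fold dilution) for 16 h at 37C, 5% CO2. After the CCF4 read, CellTiter-Glo was added; ATP luminescence was read after 30 min at room temperature.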

Row | Structure (SMILES) | AC50 | outcome
19 | CC(C)(c1ccccc1)c1ccc(O)cc1 | active: 80.1 µM | inactive
20 | CCc1nn(C)c(C(=O)NCc2ccc(C(C)(C)C)cc2)c1Cl | active: 46.1 µM | 
21 | O=[N+]([O-])c1ccc(Cl)c([N+](=O)[O-])c1 | active: 45.5 µM and active: 39.7 µM | 
22 | CC(=O)[O][Hg][c]1ccccc1 | active: 2.74 µM and active: 2.65 µM and active: 3.55 µM | 
23 | O=S1(=O)OC(c2cc(Br)c(O)c(Br)c2)(c2cc(Br)c(O)c(Br)c2)c2ccccc21 |  | inactive
24 | Cc1cc(-c2ccc(N)c(C)c2)ccc1N | inconclusive: 46 µM and inconclusive: 45.6 µM | 
25 | CCCCCCCCOC(=O)c1ccccc1C(=O)OCCCCCCCC | inconclusive: 46.1 µM | inactive
26 | COC(=O)NC(=S)Nc1ccccc1NC(=S)NC(=O)OC | inconclusive: 46.1 µM | 
27 | C=C(C)C(=O)[O][Sn]([CH2]CCC)([CH2]CCC)[CH2]CCC | active: 1.88 µM | 
28 | C[C@H]1CCCC(=O)CCC/C=C/c2cc(O)cc(O)c2C(=O)O1 |  | inactive
29 | CC(C)(c1ccccc1)c1ccc(O)c(C(C)(C)c2ccccc2)c1 | active: 11.4 µM and active: 20.3 µM | 
30 | CC(c1ccc(O)cc1)(c1ccc(O)cc1)c1ccc(O)cc1 | active: 33.4 µM | 
31 | CCN1CCC2(CC1)COc1cc3c(cc12)N(C(=O)c1ccc(-c2ccc(-c4nnc(C)o4)cc2C)cc1)CC3 | active: 54.7 µM | 
32 | O=S1OC[C@@H]2[C@H](CO1)[C@]1(Cl)C(Cl)=C(Cl)[C@@]2(Cl)C1(Cl)Cl (stereo not given in full) | active: 67.1 µM | 
33 | NS(=O)(=O)C(F)(F)C(F)(F)C(F)(F)C(F)(F)C(F)(F)C(F)(F)C(F)(F)C(F)(F)F |  | inactive
34 | CC(C)N1C(=O)N(c2ccccc2)CSC1=NC(C)(C)C | active: 84.6 µM | 
35 | CCCCCCCCn1sccc1=O |  | inactive
36 | CC1(C)CN=C(NN=C(/C=C/c2ccc(C(F)(F)F)cc2)/C=C/c2ccc(C(F)(F)F)cc2)NC1 | active: 14.7 µM | 
37 | C[C@]12CCC(=O)C=C1CC[C@@H]1[C@@H]2CC[C@@]2(C)[C@H]1CC[C@]2(C)O | inconclusive: 23 µM | 
38 | CCC[CH2][Sn]([CH2]CCC)([CH2]CCC)[O]C(=O)c1ccccc1 | active: 0.93 µM | 
39 | CCCCOC(=O)c1ccccc1C(=O)OCCCC | inconclusive: 46.1 µM | 
40 | O=C(Cc1ccccc1)c1ccccc1 |  | inactive
41 | CNC(=O)Oc1cccc2c1OC(C)(C)O2 | inconclusive: 46.1 µM and inconclusive: 417 nM | 
42 | Cc1cc(Cl)ccc1OCC(=O)O | inconclusive: 46.1 µM | 
43 | CCCCCCCCCC[N+](C)(C)CCCCCCCCCC | active: 36.4 µM and active: 33.1 µM | 
